Experimental data from article PMC9210761.
Results are given in words; binding and its absence hold for the method and conditions named. Binding can be weak; no strength is given.

Molecular target: CipA-ΔXD, C. thermocellum CipA without its terminal X-dockerin modular dyad (C. thermocellum)
Test: SEC-SAXS; CipA-ΔXD and Cel8A S458A-S459A co-expressed in E. coli from one plasmid; complex purified on a Sephacryl 200 column 1 h before injection on the beamline HPLC; scattering collected on the eluted peak

B1: C. thermocellum Cel8A S458A-S459A (dockerin mutant) co-expressed with CipA-ΔXD (enzyme, UniProt A3DC29 33-477)
chain: AGVPFNTKYPYGPTSIADNQSEVTAMLKAEWEDWKSKRITSNGAGGYKRVQRDASTNYDTVSEGMGYGLLLAVCFNEQALFDDLYRYVKSHFNGNGLMHWHIDANNNVTSHDGGDGAATDADEDIALALIFADKLWGSSGAINYGQEARTLINNLYNHCVEHGSYVLKPGDRWGGSSVTNPSYFAPAWYKVYAQYTGDTRWNQVADKCYQIVEEVKKYNNGTGLVPDWCTASGTPASGQSYDYKYDATRYGWRTAVDYSWFGDQRAKANCDMLTKFFARDGAKGIVDGYTIQGSKISNNHNASFIGPVAAASMTGYDLNFAKELYRETVAVKDSEYYGYYGNSLRLLTLLYITGNFPNPLSDLSGQPTPPSNPTPSLPPQVVYGDVNGDGNVNSTDLTMLKRYLLKSVTNINREAADVNRDGAINAADMTILKRYLIKSIPHLPY
binding: binds
